Measurements: US20250376532A1
These are yes or no findings as the source states them, for the method shown. Some binding calls cover weakened binding; strength is not graded here.

Amino acid sequences for entries named in this document (tags omitted). A change or cut given only in a name is not applied to a line headed by its entry.
UniProt O14763: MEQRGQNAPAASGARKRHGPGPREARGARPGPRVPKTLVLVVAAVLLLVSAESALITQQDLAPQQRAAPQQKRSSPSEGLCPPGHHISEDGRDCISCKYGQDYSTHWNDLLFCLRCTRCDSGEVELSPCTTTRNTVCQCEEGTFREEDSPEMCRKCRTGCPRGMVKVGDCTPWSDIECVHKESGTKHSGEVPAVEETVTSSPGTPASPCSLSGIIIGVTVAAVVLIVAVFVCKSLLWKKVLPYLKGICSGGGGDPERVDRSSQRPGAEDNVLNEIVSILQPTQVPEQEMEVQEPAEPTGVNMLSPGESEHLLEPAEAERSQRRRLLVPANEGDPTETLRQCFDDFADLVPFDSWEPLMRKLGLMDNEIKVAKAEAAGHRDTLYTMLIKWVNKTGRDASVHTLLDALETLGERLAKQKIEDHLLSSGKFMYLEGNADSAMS

Biological target: rDR5-IgG4 (recombinant wild type DR5 with IgG4 Fc) (human) (UniProt O14763)
Assay: ELISA against WT and PPCR-mutant DR5 (FIG. 5E)

binding: binds
B1: antibody 1114 (antibody, V domains shown)
VH: EVQLVQSGGGVERPGGSLRLSCAASGFTFDDYSMSWVRQAPGKGLEWVSGINWNGGSTAYADSVKGRVTISRDNAKNSLYLQMNSLRAEDTAVYYCAKILGAGRGWYFDAWGKGTTVTVSS
VL: SSELTQDPAVSVALGQTVRITCQGDSLRSYYGSWYQQKPGQAPVLVIYGRNNRPSGIPDRFSGSSSGNTASLTITGAQAEDEADYYCNSKDSSGNHVVFGGGTKLTVL
